Here are results for 38 compounds from PubChem BioAssay AID2685 (National Center for Advancing Translational Sciences (NCATS), 2010).

Molecules are shown by their SMILES. The list shows a part of the results. Further columns of the screen follow, without active or inactive calls. Most of these compounds were active or inconclusive in the main read-out, so they are no random draw. Potencies come from curve fits of mixed quality, noted in brackets.

This assay can be described thus: qHTS Assay for Lipid Storage Modulators in Drosophila S3 Cells.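 As to cell number change: cells counted by Cell Tracker Red CMTPX staining in the red channel.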 The following applies: BODIPY lipid droplet fluorescence, 18-24 h; for cell number change: measured here: cell count max response, cells fed with added oleic acid. In short, it runs like this: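 Drosophila S3 cells got compounds at several concentrations plus oleic acid (400 uM solution). Laser-scanning cytometry with 488 nm excitation read lipid droplets at 500-530 nm and cells at 575-640 nm. Percent activity was relative to 20 uM Triacsin C.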

Where [1] appears, read: measured here: lipid fluorescence (Fed channel) AC50, cells fed with added oleic acid.
The mark [2] stands for this setting: measured here: cell number channel AC50, cells fed with added oleic acid.

With `CC(C)(C)c1ccc(C(=O)NC(=O)CSc2n[nH]c(N)n2)cc1`, the cell number change came out at 12.2%. Moreover, under setting [1], the AC50 (as a rule, the concentration giving half of the maximal activity seen) was 0.13 µM [rising, full curve, poor fit]. For `O=C(NC(=S)Nc1ccc(Br)cc1)C1CCCCC1`, the cell number change was 27.9%. For the compound `CC(C)Oc1ccc(C(=O)Nc2cc(=O)n(C)c(=O)n2C)cc1`, the cell number change is -18.2%. For the same compound, under setting [1], the AC50 is 0.58 µM [falling, single point]. Consider `Cc1ccc(C(=O)N/N=C\c2ccc3c(c2)OCO3)cn1`, for which the cell number change was -2.38%. Besides, the half-maximal activity concentration (AC50) under setting [1] is 16.4 µM [rising, single point].

For the compound `Cc1oncc1C(=O)Nc1cccc(C#N)c1`, the cell number change came to 24.6%. In addition, the AC50 under setting [1] is 9.2 µM [falling, partial curve, poor fit]. Consider `Cc1ccc(C)c(N(C(=O)CNC(=O)c2ccco2)C(C(=O)NCC2CCCO2)c2ccccc2)c1` (configuration not stated), for which the cell number change is -6.58%. Further, the AC50 under setting [1] is 0.562 µM [falling, partial curve, poor fit]. Consider `O=C(CSc1nc2scc(-c3ccccc3)c2c(=O)[nH]1)N1CCOCC1`, for which the cell number change is -7.33%. Further, the AC50 under setting [1] is 29.1 µM [falling, single point].

On to `CCc1c(C)c(C#N)c2nc3ccccc3n2c1NCc1ccco1`, for which the cell number change is -19.4%. Besides, under setting [1], the AC50 was 0.00461 µM [rising, full curve, poor fit].

`C#CCOCCOCCOCCNc1nc(N2CCN(C(=O)C(Cc3cc4ccccc4[nH]3)n3cc(C(N)C(C)CC)nn3)CC2)nc(N2CCN(C(=O)C(Cc3cc4ccccc4[nH]3)n3cc(C(N)C(C)CC)nn3)CC2)n1` (configuration not stated): the cell number change was -48.7%. For the same compound, the AC50 under setting [2] is 16.4 µM [falling, single point]. Also, the AC50 under setting [1] is 23.1 µM [falling, partial curve]. As for `COc1ccc(-c2nnc(NC(=O)c3cc(Cl)ccc3Cl)o2)cc1`, the cell number change was -59.4%. Further, the AC50 under setting [2] was 29.1 µM [falling, single point]. Under setting [1], the AC50 is 29.1 µM [falling, single point]. `Cc1ccc(S(=O)(=O)N2CCOCC2)cc1NC(=O)COC(=O)c1cnccn1`: the cell number change came to 4.51%. For the same compound, the AC50 under setting [1] is 0.231 µM [rising, full curve]. Turning to `O=C(NCCC(=O)N1CCCCC1)c1ccccc1Cl`, the cell number change is 14.6%. Take `COc1ccccc1N1C(=O)c2ccccc2NC1c1ccncc1` (configuration not stated): under setting [2], the AC50 is 1.03 µM [rising, partial curve].

`CCN(CC)c1ccc(NC(=O)CN2C(=O)CC(C)(C)S(=O)(=O)c3ccccc32)c(C)c1`: the cell number change was -29.8%. Also, the AC50 under setting [1] is 29.1 µM [falling, single point]. With `CCn1c(=NC(=O)c2ccc(N3C(=O)CCC3=O)cc2)sc2c(OC)ccc(OC)c21`, the cell number change is -50.5%. Besides, the AC50 under setting [2] was 29.1 µM [falling, single point]. Also, under setting [1], the AC50 is 4.61 µM [falling, partial curve]. Regarding `O=C(O)CCN1C(=O)c2ccc(NC(=O)C(c3ccccc3)c3ccccc3)cc2C1=O`, the cell number change was 25.6%. As for `O=c1cc2oc3cc(O)c(O)cc3c(-c3ccccc3[N+](=O)[O-])c-2cc1O`, the half-maximal activity concentration (AC50) is, setting by setting: under setting [2], 0.116 µM [rising, full curve, poor fit]; under setting [1], 29.1 µM [rising, single point]. In the case of `COc1ccccc1Nc1nc(C)nc2c1oc1ccccc12`, the cell number change is -31.7%. The concentration at half-maximal activity (AC50) under setting [2] is 16.4 µM [falling, single point]. Besides, under setting [1], the half-maximal activity concentration (AC50) is 29.1 µM [falling, single point].

Take `O=C(NC1CC2CCCC(C1)N2C(=S)Nc1ccccc1Cl)C1CC1` (configuration not stated): the cell number change was 3.85%.

On to `CC(=O)C12CCCCC1CC1C3CC(C)C4(O)CC(=O)CCC4(C)C3CCC12C` (configuration not stated), for which the cell number change was -6.3%. Also, the AC50 under setting [1] was 0.731 µM [falling, full curve, poor fit].

For the compound `COc1cc(C(=O)Nc2ccc(N(C)C)cc2)cc(OC)c1OC`, the cell number change came out at 20.7%.

Take `Cc1cc(=O)oc2cc(OCC(=O)OCC(=O)N(CCC#N)c3ccccc3)ccc12`: the cell number change is -1.64%. For the compound `N=c1ccn(Cc2cccc(F)c2)cc1`, the cell number change is -10.8%. Moreover, the AC50 under setting [2] is 0.00461 µM [falling, full curve, poor fit]. For the compound `CC1(C)CC(=O)C2=C(C1)Nc1[nH]c(=S)[nH]c(=O)c1C2c1ccccc1` (configuration not stated), the cell number change was determined as 8.27%. With `CCn1c(COc2cccc(OC)c2)nnc1SCC(=O)Nc1cccc(OC)c1`, the cell number change is -20.1%. Moreover, the AC50 under setting [1] is 29.1 µM [falling, single point]. As for `COc1ccc(Nc2ccccc2N)cc1`, the cell number change is 69.2%. In addition, under setting [2], the AC50 is 11.6 µM [rising, partial curve]. Besides, the AC50 under setting [1] was 32.6 µM [falling, partial curve, poor fit]. For `O=C(NCC1CCN(Cc2ccc(F)cc2)CC1)Nc1cc(F)ccc1F`, the cell number change is 4.96%. Under setting [2], the AC50 is 0.82 µM [rising, full curve, poor fit]. Take `O=C1COc2ccc(C(=O)COC(=O)/C=C/c3ccco3)cc2N1`: the cell number change stood at 5.94%. Besides, the AC50 under setting [1] was 0.92 µM [falling, partial curve, poor fit]. Consider `N#Cc1c(-c2ccccc2F)cc(C2CC2)nc1SCC(=O)c1cccs1`, for which the cell number change was -5.73%. Also, the AC50 under setting [1] is 29.1 µM [falling, single point]. Regarding `CCOC(=O)C1CN(S(=O)(=O)c2ccc(F)cc2)C1`, the cell number change was found to be 17.3%. Under setting [1], the half-maximal activity concentration (AC50) is 1.16 µM [rising, full curve, poor fit]. In the case of `Cc1cccc(NC(=O)CCCCCN2C(=O)[C@@H]3Cc4ccccc4CN3C2=O)c1`, the cell number change is 18.2%. The AC50 under setting [1] was 29.1 µM [rising, single point]. With `COc1ccc(C(=O)Nc2ccccc2C(=O)N2CCOCC2)cc1OC`, the cell number change was determined as 2.63%. As for `CC1(C)Cc2noc(N)c2C(C)(C)N1OC(=O)c1ccccc1`, the half-maximal activity concentration (AC50) under setting [2] is 1.3 µM [falling, partial curve] and the AC50 under setting [1] was 0.58 µM [falling, single point]. Take `Cc1cc(N2CCOCC2)nc(SCc2ccc(Cl)cc2Cl)n1`: the cell number change worked out at 16.8%. For `Cc1c(C#N)c(O)n(CCO)c(=O)c1N=Nc1ccccc1`, the cell number change stood at 33%. The concentration at half-maximal activity (AC50) under setting [2] was 2.06 µM [rising, single point]. As to `CC(=O)Nc1ccc(C2NC(=O)c3ccccc3O2)cc1` (configuration not stated), the cell number change was -0.971%. The AC50 under setting [1] was 0.184 µM [falling, full curve, poor fit]. `COc1ccccc1N(Cc1ccccc1)S(=O)(=O)c1cccc(C(=O)Nc2ccc(C(C)=O)cc2)c1`: the cell number change is -48%. Further, the AC50 under setting [2] was 29.1 µM [falling, single point]. In addition, under setting [1], the AC50 is 25.9 µM [falling, single point]. With `CC(C)OC(=O)c1c2nc3ccccc3nc2n2c1[nH]c(=O)c1ccccc12`, the AC50 reads like this: under setting [2], 0.291 µM [rising, full curve]; under setting [1], 0.411 µM [rising, full curve].
